PubChem BioAssay AID686937 | Drosophila RNAi Screening Center | 2013

Screen: 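Genes whose loss weakens secretory pathway function in fly cells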 (primary screen)
Cell system: Drosophila S2 cells expressing secreted horseradish peroxidase
Knock-down reagent: long dsRNA against Drosophila genes
Duration: about 5.5 days (5 days dsRNA, then 12 h reporter induction)
Challenge: reporter expression induced after 5 days of dsRNA, read 12 h later; inducer not stated
Measured: 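Chemiluminescent measurement of peroxidase in the medium 12 h after reporter induction, following 5 days of dsRNA, given as a z-score per plate; higher means more secretion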
Direction: z-score: higher = more reporter secreted into medium
The screen tested about 23,000 reagents; this is an unselected part of those that have a named target and a result. 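Reduced-secretion tags in replicate 1 do not always agree with the z-scores; no criterion for assigning the tags was given.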 A plus sign joins genes that one reagent is predicted to hit. Further read-outs or replicates are left out here. Not given: the amount of reagent.

no.	Gene	amplicon	z-score, replicate 1
1	CG8289 (GeneID 32741)	DRSC20101	0.14
2	CG10338 (GeneID 35124)	DRSC02039	0.38
3	dUTPase (GeneID 34529)	DRSC01998	0.23
4	pen-2 (GeneID 251430)	DRSC05722	0.82
5	CG1622 (GeneID 32282)	DRSC19745	-0.47
6	Efa6 (GeneID 42665)	DRSC13569	0.4
7	Efa6 (GeneID 42665)	DRSC15312	0.19
8	Efa6 (GeneID 42665)	DRSC16141	0.67
9	CG13872 (GeneID 37273)	DRSC06431	0.35
10	CG14043 (GeneID 33714)	DRSC02368	0.11
11	CG15439 (GeneID 33651)	DRSC00453	0.37
12	tutl (GeneID 46015)	DRSC00441	0.49
13	tutl (GeneID 46015)	DRSC00442	0.41
14	tutl (GeneID 46015)	DRSC00443	0.12
15	Smyd5 (GeneID 42517)	DRSC15483	-0.29
16	ND-51L2 (GeneID 36695)	DRSC07080	0.17
17	ND-MWFE (GeneID 5740593)	DRSC06364	0.11
18	FipoQ (GeneID 43475)	DRSC15413	0.51
19	CG13255 (GeneID 50109)	DRSC11702	0.3
20	Ssk (GeneID 40207)	DRSC10756	0.2
21	JYalpha (retired record) + JYalpha	DRSC21700	-0.41
22	Nadk1b (GeneID 36507)	DRSC05432	0.57
23	Nadk1b (GeneID 36507)	DRSC06964	0.35
24	Nadk1b (GeneID 36507)	DRSC06965	0.18
25	CG12538 (GeneID 41658)	DRSC14527	-0.78
26	Pldn (GeneID 39315)	DRSC10137	0.52
27	lig (GeneID 35771)	DRSC07246	0.39
28	lig (GeneID 35771)	DRSC07247	-0.06
29	CG13685 (GeneID 38869)	DRSC10043	0.25
30	Rab9Db + Rab9Fa	DRSC18445	0.35
31	CG5781 (GeneID 34678)	DRSC02893	0.39
32	Cdlc2 (GeneID 33319)	DRSC00743	-0.26
33	RhoGAP71E (GeneID 39693)	DRSC10232	0.48
34	RhoGAP71E (GeneID 39693)	DRSC10837	0.25
35	RhoGAP71E (GeneID 39693)	DRSC10838	0.66
36	CG33116 (GeneID 326259)	DRSC02045	0.35
37	CG43691 (GeneID 14462585)	DRSC06650	0.25
38	CG43691 (GeneID 14462585)	DRSC06651	0.21
39	ng2 (GeneID 31298)	DRSC18803	0.13
40	d-cup (GeneID 41580)	DRSC14846	0.1
41	Nt5c (GeneID 35984)	DRSC06711	-0.75
42	CG4328 (GeneID 39405)	DRSC10410	-2.2
43	psd (GeneID 33830)	DRSC03131	0.09
44	lncRNA:iab4 (GeneID 3772110)	DRSC22331	-1.1
45	Idh (GeneID 44291)	DRSC10779	0.1

Records listed so far whose target name begins with N or n:
Gene	amplicon	z-score, replicate 1
ND-51L2 (GeneID 36695)	DRSC07080	0.17
ND-MWFE (GeneID 5740593)	DRSC06364	0.11
Nadk1b (GeneID 36507)	DRSC05432	0.57
Nadk1b (GeneID 36507)	DRSC06964	0.35
Nadk1b (GeneID 36507)	DRSC06965	0.18
ng2 (GeneID 31298)	DRSC18803	0.13
Nt5c (GeneID 35984)	DRSC06711	-0.75

Next reagents follow.
no.	Gene	amplicon	z-score, replicate 1
46	CG32750 (GeneID 326238)	DRSC18848	0.31
47	Cpr49Ac (GeneID 36348)	DRSC07199	0.25
48	ppk (GeneID 34843)	DRSC03595	-0.21
49	CG7655 (GeneID 42128)	DRSC16275	0.29
50	Ccdc58 + CG34116	DRSC10105	0.24
51	Dcp-1 (GeneID 37729)	DRSC04609	0.11
52	CG6153 (GeneID 34675)	DRSC02935	0.54
53	superdeath (GeneID 43444)	DRSC14868	-1.96
54	Tim17b1 (GeneID 40635)	DRSC12179	0.38
55	CG15814 (GeneID 32765)	DRSC19730	0.14
56	Nxt1 (GeneID 37769)	DRSC04630	-1.08
57	ninaC (GeneID 34012)	DRSC03579	0.35
58	CG9933 (GeneID 34700)	DRSC03276	0.07
59	SPE (GeneID 42791)	DRSC15135	0.2
60	gd (GeneID 32159)	DRSC20336	0.2
61	Snmp2 (GeneID 38868)	DRSC10228	0.5
62	Snmp2 (GeneID 38868)	DRSC10843	0.38
63	CG13838 (GeneID 42719)	DRSC14688	0.55
64	CG31559 (GeneID 40749)	DRSC12172	0.05
65	CG31559 (GeneID 40749)	DRSC12270	0.18
66	CG8086 (GeneID 34131)	DRSC03078	0.24
67	CG8086 (GeneID 34131)	DRSC03079	0.26
68	CG8135 + BBIP1	DRSC12739	-1.12
69	CG8135 + BBIP1	DRSC16384	0.41
70	CG5191 (GeneID 42431)	DRSC15733	0.19
71	CG5191 (GeneID 42431)	DRSC15734	0.18
72	CG5191 (GeneID 42431)	DRSC21559	0.11
73	CG44433 (GeneID 37150)	DRSC06517	0.46
74	CG44433 (GeneID 37150)	DRSC06518	0.36
75	GalT1 (GeneID 36279)	DRSC22238	0.72
76	CG33543 (GeneID 3346207)	DRSC00384	0.47
77	CG33543 (GeneID 3346207)	DRSC00385	0.4
78	CG17564 (GeneID 35205)	DRSC02626	2.45
79	Su(var)3-7 (GeneID 41627)	DRSC16872	-0.02
80	clos (GeneID 5740204)	DRSC06240	0.23
81	clos (GeneID 5740204)	DRSC06241	0.23
82	clos (GeneID 5740204)	DRSC06778	0.04
83	clos (GeneID 5740204)	DRSC21857	0.32
84	clos (GeneID 5740204)	DRSC22942	-1.32
85	Lint-1 + rtv	DRSC19541	0.2
86	CG34382 (GeneID 5740788)	DRSC08999	0.54
87	CG34382 (GeneID 5740788)	DRSC10166	0.3
88	CG34382 (GeneID 5740788)	DRSC10167	0.95
89	TotZ (GeneID 117459)	DRSC13450	-0.81
90	SppL (GeneID 43128)	DRSC15228	0.05
91	Osi7 (GeneID 40761)	DRSC12176	0.21
92	Lpt (GeneID 37795)	DRSC04291	0.03
93	Lpt (GeneID 37795)	DRSC04515	-0.09
94	CG9068 (GeneID 36817)	DRSC07329	0.3
95	CG31036 (GeneID 43539)	DRSC15055	0.2
96	CG31036 (GeneID 43539)	DRSC15057	0.1
97	CG16789 (GeneID 41154)	DRSC15155	0.34
98	CG33333 (GeneID 2768672)	DRSC13233	-0.01
99	CG1136 (GeneID 38479)	DRSC08184	0.22
100	Sardh (GeneID 37026)	DRSC06981	0.18
101	Lztr1 (GeneID 31037)	DRSC18176	0.53
102	Lztr1 (GeneID 31037)	DRSC18647	0.32
103	Cad88C (GeneID 41774)	DRSC15486	0.16
104	CG9673 (GeneID 32649)	DRSC20202	0.25
